# In PMC7819943, “Rice protein-binding microarrays: a tool to detect cis-acting elements near promoter regions in rice”:
# The chains behind the UniProt entries cited, without tags or fusion partners.
# UniProt Q0JBA9, entry or part of it: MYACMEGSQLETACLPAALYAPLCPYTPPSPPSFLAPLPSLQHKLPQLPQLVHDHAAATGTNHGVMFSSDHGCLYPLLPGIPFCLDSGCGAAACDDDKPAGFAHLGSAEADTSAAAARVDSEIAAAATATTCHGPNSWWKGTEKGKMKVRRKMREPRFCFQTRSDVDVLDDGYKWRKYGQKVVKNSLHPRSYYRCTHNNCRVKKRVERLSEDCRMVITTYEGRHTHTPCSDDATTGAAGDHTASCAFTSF
# The list shows a part of the results.
# Target: OsWRKY34 (Oryza sativa, UniProt Q0JBA9 1-250)
# Assay: protein-binding microarray (RPBM); PBS, 2% BSA, 51.3 ng/ul salmon testes DNA, 50 uM zinc acetate, 200 nM TF, 25 C, 1 h; high values mean tight binding
# Settings: protein: recombinant; tags: N-terminal polyhistidine and DsRed monomer fusion (pET32a); label: CyDye5-dUTP incorporated in the synthesized complementary strand; 3' TTTTT single-stranded linker to array surface; dsDNA, one strand shown
# Procedure, shortened: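 A custom Agilent array was converted to double-stranded form by primer extension with Cy5-dUTP and blocked with 2% BSA. Protein at 200 nM in PBS with 2% BSA, salmon testes DNA and 50 µM zinc acetate was applied for 1 h at 25 °C, followed by washing. The proteins were polyhistidine–DsRed N-terminal fusions of transcription factors, expressed in E. coli BL21-CodonPlus and Ni–NTA-purified. The binding signal is per-feature fluorescence intensity (arbitrary units) from an Axon 4000B scanner.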
row,Sequence,binding signal
1,GCATACACATCAGCCACCAGATTTGTTCCATCTCTCTTCCCGGAGTCACCTAGTGCAG,8630 fluorescence intensity (a.u.)
2,CACTTGACTGGCTGATGCTATTGGCCTCTGTTATATTTTCCGGAGTCACCTAGTGCAG,9300 fluorescence intensity (a.u.)
3,CCCCTCACTCCTCCGATCCTTTCCCACTGCGCGCCACTCACGGAGTCACCTAGTGCAG,10700 fluorescence intensity (a.u.)
4,ATTTTTTTATTCGTGTCCGAAACCCCTTCCGACATCCTGTCGGAGTCACCTAGTGCAG,8900 fluorescence intensity (a.u.)
5,ATATTTGTGTTCATTCATTAGGTCTATTCGTTATTTTTGCCGGAGTCACCTAGTGCAG,9640 fluorescence intensity (a.u.)
6,AGCGAGTATATTCTAGCTAGCTGCAACTCTCTCTCTCTCTCGGAGTCACCTAGTGCAG,8490 fluorescence intensity (a.u.)
7,GGGACTCCTAGGCTTTGTGTCTGTTACTTCTTTTCTACTGCGGAGTCACCTAGTGCAG,14200 fluorescence intensity (a.u.)
8,CAATGCCGTCTCTGCCCCACCGGCATCTTGATCGATCCTGCGGAGTCACCTAGTGCAG,9050 fluorescence intensity (a.u.)
9,TCGTAGTTGTGTTAGTGGCTAGGGTTTTGGCCTGTGTGTGCGGAGTCACCTAGTGCAG,8120 fluorescence intensity (a.u.)
10,TTCTTATAGCCCAAGCCATCCTCATCTCCTTCCTTGCTGCCGGAGTCACCTAGTGCAG,11700 fluorescence intensity (a.u.)
11,TCCCAATTATTGGACCTCGACCGCTCCTAAATCCCCTGCCCGGAGTCACCTAGTGCAG,8040 fluorescence intensity (a.u.)
12,GGAGTGTTGCTTGGGCTGTCGCGGTCGGGCCGGCCCAGGACGGAGTCACCTAGTGCAG,8320 fluorescence intensity (a.u.)
13,TCTTTTCTCTCTCCTTTCCATGGCCGGCTATCACTGTCGTCGGAGTCACCTAGTGCAG,8270 fluorescence intensity (a.u.)
14,CACGGCTCCATCTGCTCAAGCACCACCAGCCTCGCCGGCACGGAGTCACCTAGTGCAG,9990 fluorescence intensity (a.u.)
15,GATCCCATGCAAAGTCGCTTTTTTTCTCAGCTGAATTGAACGGAGTCACCTAGTGCAG,10100 fluorescence intensity (a.u.)
16,GCTAAGCTCCGCCTCGTCTTCCGCCCACGCTGCTCTGCTCCGGAGTCACCTAGTGCAG,9150 fluorescence intensity (a.u.)
17,CCGTCCATCTGTTCGCTTTGTCCTCTTGCAATCATTCACTCGGAGTCACCTAGTGCAG,14400 fluorescence intensity (a.u.)
18,GCACCTCAGTCCTGTCCCAACCATCAAATTCGTCTTGATCCGGAGTCACCTAGTGCAG,8560 fluorescence intensity (a.u.)
19,CTGTTACTTGCATCCGAACAAGCCCATTTATATCTCACGTCGGAGTCACCTAGTGCAG,11200 fluorescence intensity (a.u.)
20,GCTTATACTGTTATAACTCTTTTGGAACAGAATTTTCGAACGGAGTCACCTAGTGCAG,8660 fluorescence intensity (a.u.)
21,TCTGAATCAATCACACTCCTTGCACAATGCCTTCACTGTCCGGAGTCACCTAGTGCAG,9660 fluorescence intensity (a.u.)

row,Sequence,binding signal
1,CGTATCTTTTCGCCCATCGTCATAACGCGCGGTATACGTACGGAGTCACCTAGTGCAG,8400 fluorescence intensity (a.u.)
2,ATGATGTGCTTTCTATCTCTAATCTCCTAGGCTGTGTTTACGGAGTCACCTAGTGCAG,11900 fluorescence intensity (a.u.)
3,TCAACATAGATAAGCTCATCTAGTCTGTCAAATTGGCCATCGGAGTCACCTAGTGCAG,8060 fluorescence intensity (a.u.)
4,TGGTGGTGGTGGTGAGGGGTTAGAGGGGCTAGGGTTGCGGCGGAGTCACCTAGTGCAG,11400 fluorescence intensity (a.u.)
5,GGGGTTTCCTCGGGGCTTAGAGGGATGACCGTGGACGACGCGGAGTCACCTAGTGCAG,15800 fluorescence intensity (a.u.)
6,GTTCAGGTTTTGTTGTTTACCATTTCAGTGAGCTATTAGTCGGAGTCACCTAGTGCAG,8100 fluorescence intensity (a.u.)
7,CGATGAGATCTATAACTTTGTAGTTTATCACTTTTCCATTCGGAGTCACCTAGTGCAG,8550 fluorescence intensity (a.u.)
8,ATGCTACTCTCGCTCTGCTACTCACTCCTGGCGCCGGTGACGGAGTCACCTAGTGCAG,9200 fluorescence intensity (a.u.)
9,TACATGTGGTCAGCAATTTTCATGCTCCTTGCCCTTTTCACGGAGTCACCTAGTGCAG,13000 fluorescence intensity (a.u.)
10,TTCTTTGTTCTTTACCTGCTCCGGTGGTGGACCACCACCCCGGAGTCACCTAGTGCAG,11000 fluorescence intensity (a.u.)
11,TCCAACTCACTTATCTCGTTTTCCGCGCACACGTTTTTTACGGAGTCACCTAGTGCAG,16500 fluorescence intensity (a.u.)
12,AGTTGTTGCGGTGTGTTTGCTGTTCTTGGTTGGAGGCATGCGGAGTCACCTAGTGCAG,11400 fluorescence intensity (a.u.)
13,CCAACCCCTCCCACCTCGCCACCTTTTTTCACCTTTTCCCCGGAGTCACCTAGTGCAG,8240 fluorescence intensity (a.u.)
14,CCCTAAACAGGTCAACCTCAGGTGTTGACTAGAGTACTAGCGGAGTCACCTAGTGCAG,8290 fluorescence intensity (a.u.)
15,TGGTTGTGTTTATAATGTACTTCTACTATAGTAATTTTATCGGAGTCACCTAGTGCAG,8560 fluorescence intensity (a.u.)
16,AATTTTCTTCACCTGCTGCAATGCATGGGCATTTTGCTAGCGGAGTCACCTAGTGCAG,8150 fluorescence intensity (a.u.)
17,CTCCAACCGCATCAACACTCGTCGCGCGAAGCGTACCATCCGGAGTCACCTAGTGCAG,8440 fluorescence intensity (a.u.)
18,GTCGTCTCCCACACTCTCCGCTTCCGTTCCGTCTCGTTGTCGGAGTCACCTAGTGCAG,11100 fluorescence intensity (a.u.)
19,GGGTTTGCACGAAGATATTATACTTCCTCAGCTCTGTTCTCGGAGTCACCTAGTGCAG,10800 fluorescence intensity (a.u.)
20,ATCTCGCCTGACCACCGTTCCCCACCTCGCCTCGCCTCGCCGGAGTCACCTAGTGCAG,11800 fluorescence intensity (a.u.)
21,AAACTCGGCGTGGCCACAGTCCTCCACCGCCCTCCGCATGCGGAGTCACCTAGTGCAG,8550 fluorescence intensity (a.u.)

row,Sequence,binding signal
1,CGAACCGAGCTTAGGTGATTTTTGCGGGTGGAGTTTTTTACGGAGTCACCTAGTGCAG,8460 fluorescence intensity (a.u.)
2,CCCGCGCATCACCATGGACCACACTTCATACGCACGCAGCCGGAGTCACCTAGTGCAG,13600 fluorescence intensity (a.u.)
3,CCACCTGTCTGGTTCGCGCGTTCTCCCGTCGGATCCCGCGCGGAGTCACCTAGTGCAG,10600 fluorescence intensity (a.u.)
4,TTTGCCACTGTTTTTGCTCATTGTTTAATGCTGCATCGATCGGAGTCACCTAGTGCAG,8580 fluorescence intensity (a.u.)
5,GCTGCGCGATCCAGGGTTTCGTGGTGTTGTTCCTCGTCTACGGAGTCACCTAGTGCAG,11300 fluorescence intensity (a.u.)
6,CCTCCTTTCCTAAATATTTGACGCCGTTGACTTTTTTAAACGGAGTCACCTAGTGCAG,13500 fluorescence intensity (a.u.)
7,TTACAATTTTATCACATATAAGTGGTCGACATTTGCTCATCGGAGTCACCTAGTGCAG,9400 fluorescence intensity (a.u.)
8,AAACTGCACGTGGACCTGAAGCATTTTCTCCTTCGTTTACCGGAGTCACCTAGTGCAG,11100 fluorescence intensity (a.u.)
9,AAATTGGTTGTCTTTTTACTACAGCCTGGTAGTATAACTTCGGAGTCACCTAGTGCAG,8210 fluorescence intensity (a.u.)
10,GTGCAAAAGCGCCCAACTCTACTCACTTTTCCCCAGCTTTCGGAGTCACCTAGTGCAG,9350 fluorescence intensity (a.u.)
11,AGTGTGTGTGTTGTGAGTGTCTATGTTGTACTGTGTAATTCGGAGTCACCTAGTGCAG,8390 fluorescence intensity (a.u.)
12,CTCGGGTTCGGGGTGCTTGCCTCGGGGCGCCGCGGCGGTGCGGAGTCACCTAGTGCAG,9540 fluorescence intensity (a.u.)
13,CATCTCAATCATCTTTTCTTTTTCCTTGTTTCGTCCTGATCGGAGTCACCTAGTGCAG,8920 fluorescence intensity (a.u.)
14,TTCTTCAGAAGTTACCGGTTTTCCACTTGATTTCGTGAAACGGAGTCACCTAGTGCAG,8240 fluorescence intensity (a.u.)
15,TGATTGTTGTTATGTTTGCACTAGTGAGTATGCAGTAAACCGGAGTCACCTAGTGCAG,9000 fluorescence intensity (a.u.)
16,CTCTCTCTTCTTCTTCGTGTTGTTGTTTCTCTCTCTGTCTCGGAGTCACCTAGTGCAG,11700 fluorescence intensity (a.u.)
17,CATTTCACGCGAACTCGAGCCCCACACATATATATACACACGGAGTCACCTAGTGCAG,9980 fluorescence intensity (a.u.)
18,ACTCTATCCTGCATCTGTTATAATTTCAAGTTCTAAACTGCGGAGTCACCTAGTGCAG,10300 fluorescence intensity (a.u.)
19,ATTTGTCGTCCAGTCTGATTTTCGTCCCTGAACCGCAAAACGGAGTCACCTAGTGCAG,10000 fluorescence intensity (a.u.)
20,TTTAAACATTTTATTTCCATTTTTAATTTTTTTTCCTTATCGGAGTCACCTAGTGCAG,8100 fluorescence intensity (a.u.)
21,TCGCGTAGGGGAGGGGTGAAATATATTTTTTATGCCGGGCCGGAGTCACCTAGTGCAG,18000 fluorescence intensity (a.u.)

row,Sequence,binding signal
1,GAAGACCGGCGACTGCTGCACTTTCTCCCGCGGGCCTCGCCGGAGTCACCTAGTGCAG,9010 fluorescence intensity (a.u.)
2,AATTCTACCCGCTCGGAGCTCCTCCCCTTTCATCGTCTCCCGGAGTCACCTAGTGCAG,8750 fluorescence intensity (a.u.)
3,TCCGAATTCTCTCTCTCCTCCATTTTTGTGAGTTTTTTTTCGGAGTCACCTAGTGCAG,14100 fluorescence intensity (a.u.)
4,CTGTTTAGATCCCACCTCAAAATTTTTCACCCTGTCACATCGGAGTCACCTAGTGCAG,11700 fluorescence intensity (a.u.)
5,TTGCCTTTTGGTGCCCGTTCGCTGTTCTTCTTGTCGTCTGCGGAGTCACCTAGTGCAG,10500 fluorescence intensity (a.u.)
6,ATTGCCGTTTATATTTGGTCAAATTTAAACGTTTTCTTTTCGGAGTCACCTAGTGCAG,8020 fluorescence intensity (a.u.)
7,GCCTTAGCTCTTCGCCATAAGATTGCACTTGTAGTACTTTCGGAGTCACCTAGTGCAG,8180 fluorescence intensity (a.u.)
8,AAACTGCACTACTTTATCTTGGTTGTCTTTAGCATAAGAACGGAGTCACCTAGTGCAG,12100 fluorescence intensity (a.u.)
9,CACCAACCACGTATGTGCTACTTGTCTTGCAAGCAAATCCCGGAGTCACCTAGTGCAG,8200 fluorescence intensity (a.u.)
10,CTCTCGTTTGCATTGCAGGGATCATCAACCGCGCGTCATGCGGAGTCACCTAGTGCAG,8990 fluorescence intensity (a.u.)
11,TATTTTTTTCATATTAATATCGTTACCTGTTCCTCTTTTACGGAGTCACCTAGTGCAG,10400 fluorescence intensity (a.u.)
12,TGTGATATCCGTAACTCTGACACTCCGTATTTGTGAATCTCGGAGTCACCTAGTGCAG,8100 fluorescence intensity (a.u.)
13,ACATGATGGATGTTTTATTGTCCTCGGTCTCTACGCTCTTCGGAGTCACCTAGTGCAG,8280 fluorescence intensity (a.u.)
14,GTCGTCGTCTTCGTCTCGAGTTCTTGGTTGGTTGGATCTACGGAGTCACCTAGTGCAG,19400 fluorescence intensity (a.u.)
15,TTACCTGTTCTTTGGCAGAATTTGTGTGGAGGGTGGTTTGCGGAGTCACCTAGTGCAG,8120 fluorescence intensity (a.u.)
16,TGTCCCAACAACGTTCAACGCGTTCTGCCACAACCCACAACGGAGTCACCTAGTGCAG,9360 fluorescence intensity (a.u.)
17,CCTCCAATCAACTGTACAATGAGTAGCTCATTTCTCTTTTCGGAGTCACCTAGTGCAG,8760 fluorescence intensity (a.u.)
18,CGCACTCTCTCTCGCTATAGCCTATAGCGTCTCTCCCGAACGGAGTCACCTAGTGCAG,11400 fluorescence intensity (a.u.)
19,TCCCTTTTTCCTTCTTTTTTCTCCCTTTTTATCCTTTTTTCGGAGTCACCTAGTGCAG,14900 fluorescence intensity (a.u.)
20,AAACGTTTCTACTTTGGTCAAAGTCAAACTGCTTTATATTCGGAGTCACCTAGTGCAG,10700 fluorescence intensity (a.u.)
21,GTGAGGAAATGGATGTTGATAAGTTGGGTTGTTAGCTTTACGGAGTCACCTAGTGCAG,12000 fluorescence intensity (a.u.)

# Quoted from the listing:
# Entry of AAACTGCACTACTTTATCTTGGTTGTCTTTAGCATAAGAACGGAGTCACCTAGTGCAG under binding signal: 12100 fluorescence intensity (a.u.)
# Entry of TATTTTTTTCATATTAATATCGTTACCTGTTCCTCTTTTACGGAGTCACCTAGTGCAG under binding signal: 10400 fluorescence intensity (a.u.)
# Entry of TGTCCCAACAACGTTCAACGCGTTCTGCCACAACCCACAACGGAGTCACCTAGTGCAG under binding signal: 9360 fluorescence intensity (a.u.)
# Entry of CTCTCGTTTGCATTGCAGGGATCATCAACCGCGCGTCATGCGGAGTCACCTAGTGCAG under binding signal: 8990 fluorescence intensity (a.u.)
# Entry of GCCTTAGCTCTTCGCCATAAGATTGCACTTGTAGTACTTTCGGAGTCACCTAGTGCAG under binding signal: 8180 fluorescence intensity (a.u.)
